# According to PMC8384837:
# Changes are numbered by the printed parent chain. Some of the results follow. For part of these data: At the low end of the ranking the order means little.
# Assays:
# Details in all cases: yeast three-hybrid, YBZ-1, SC-Leu-His + 0.5 mM 3-AT, 4 days
# [1] = target: T1, PUM1 PUF domain R5-QLV C1007Q + R1008L + Q1011V (UniProt Q14671)
# T1 sequence: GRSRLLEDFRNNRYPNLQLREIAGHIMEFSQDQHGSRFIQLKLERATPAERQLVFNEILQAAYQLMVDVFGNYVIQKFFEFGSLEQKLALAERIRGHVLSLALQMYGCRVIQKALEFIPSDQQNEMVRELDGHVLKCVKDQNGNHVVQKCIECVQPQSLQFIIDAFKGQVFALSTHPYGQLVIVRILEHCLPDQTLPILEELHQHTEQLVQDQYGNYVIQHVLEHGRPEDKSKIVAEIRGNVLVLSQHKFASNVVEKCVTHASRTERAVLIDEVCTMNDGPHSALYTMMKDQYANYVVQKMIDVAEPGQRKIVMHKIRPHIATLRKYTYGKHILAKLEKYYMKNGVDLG
# [2] = target: T2, PUM1 PUF domain R5-QRL C1007Q + Q1011L (Homo sapiens) (UniProt Q14671)
# T2 sequence: T1 sequence with L181R, V184L
# [3] = target: T3, PUM1 PUF domain R5-QTI C1007Q + R1008T + Q1011I (Homo sapiens) (UniProt Q14671)
# T3 sequence: T1 sequence with L181T, V184I
# [4] = target: T4, PUM1 PUF domain R5-RAV C1007R + R1008A + Q1011V (Homo sapiens) (UniProt Q14671)
# T4 sequence: T1 sequence with Q180R, L181A
# [5] = target: T5, PUM1 PUF domain R5-RCK C1007R + R1008C + Q1011K (Homo sapiens) (UniProt Q14671)
# T5 sequence: T1 sequence with Q180R, L181C, V184K
# [6] = target: T6, PUM1 PUF domain R5-RDR C1007R + R1008D + Q1011R (Homo sapiens) (UniProt Q14671)
# T6 sequence: T1 sequence with Q180R, L181D, V184R
# [7] = target: T7, PUM1 PUF domain R5-RGW C1007R + R1008G + Q1011W (Homo sapiens) (UniProt Q14671)
# T7 sequence: T1 sequence with Q180R, L181G, V184W
# [8] = target: T8, PUM1 PUF domain R5-RKM C1007R + R1008K + Q1011M (Homo sapiens) (UniProt Q14671)
# T8 sequence: T1 sequence with Q180R, L181K, V184M
# [9] = target: T9, PUM1 PUF domain R5-RLT C1007R + R1008L + Q1011T (Homo sapiens) (UniProt Q14671)
# T9 sequence: T1 sequence with Q180R, V184T
# [10] = target: T10, PUM1 PUF domain R5-RMV C1007R + R1008M + Q1011V (Homo sapiens) (UniProt Q14671)
# T10 sequence: T1 sequence with Q180R, L181M
# [11] = target: T11, PUM1 PUF domain R5-RTL C1007R + R1008T + Q1011L (Homo sapiens) (UniProt Q14671)
# T11 sequence: T1 sequence with Q180R, L181T, V184L
# [12] = target: T12, PUM1 PUF domain R5-SAC C1007S + R1008A + Q1011C (Homo sapiens) (UniProt Q14671)
# T12 sequence: T1 sequence with Q180S, L181A, V184C
# [13] = target: T13, PUM1 PUF domain R5-SAG C1007S + R1008A + Q1011G (Homo sapiens) (UniProt Q14671)
# T13 sequence: T1 sequence with Q180S, L181A, V184G
# [14] = target: T14, PUM1 PUF domain R5-SAP C1007S + R1008A + Q1011P (UniProt Q14671)
# T14 sequence: T1 sequence with Q180S, L181A, V184P
# [15] = target: T15, PUM1 PUF domain R5-SAS C1007S + R1008A + Q1011S (Homo sapiens) (UniProt Q14671)
# T15 sequence: T1 sequence with Q180S, L181A, V184S
# [16] = target: T16, PUM1 PUF domain R5-SDE C1007S + R1008D + Q1011E (UniProt Q14671)
# T16 sequence: T1 sequence with Q180S, L181D, V184E
# [17] = target: T17, PUM1 PUF domain R5-SED C1007S + R1008E + Q1011D (UniProt Q14671)
# T17 sequence: T1 sequence with Q180S, L181E, V184D
# [18] = target: T18, PUM1 PUF domain R5-SER C1007S + R1008E + Q1011R (Homo sapiens) (UniProt Q14671)
# T18 sequence: T1 sequence with Q180S, L181E, V184R
# [19] = target: T19, PUM1 PUF domain R5-SGC C1007S + R1008G + Q1011C (Homo sapiens) (UniProt Q14671)
# T19 sequence: T1 sequence with Q180S, L181G, V184C
# [20] = target: T20, PUM1 PUF domain R5-SGG C1007S + R1008G + Q1011G (UniProt Q14671)
# T20 sequence: T1 sequence with Q180S, L181G, V184G
# [21] = target: T21, PUM1 PUF domain R5-SGS C1007S + R1008G + Q1011S (UniProt Q14671)
# T21 sequence: T1 sequence with Q180S, L181G, V184S
# [22] = target: T22, PUM1 PUF domain R5-SGT C1007S + R1008G + Q1011T (UniProt Q14671)
# T22 sequence: T1 sequence with Q180S, L181G, V184T
# [23] = target: T23, PUM1 PUF domain R5-SGV C1007S + R1008G + Q1011V (UniProt Q14671)
# T23 sequence: T1 sequence with Q180S, L181G
# [24] = target: T24, PUM1 PUF domain R5-SIC C1007S + R1008I + Q1011C (Homo sapiens) (UniProt Q14671)
# T24 sequence: T1 sequence with Q180S, L181I, V184C
# [25] = target: T25, PUM1 PUF domain R5-SIS C1007S + R1008I + Q1011S (UniProt Q14671)
# T25 sequence: T1 sequence with Q180S, L181I, V184S
# [26] = target: T26, PUM1 PUF domain R5-SKQ C1007S + R1008K (Homo sapiens) (UniProt Q14671)
# T26 sequence: T1 sequence with Q180S, L181K, V184Q
# [27] = target: T27, PUM1 PUF domain R5-SLC C1007S + R1008L + Q1011C (Homo sapiens) (UniProt Q14671)
# T27 sequence: T1 sequence with Q180S, V184C
# [28] = target: T28, PUM1 PUF domain R5-SLH C1007S + R1008L + Q1011H (UniProt Q14671)
# T28 sequence: T1 sequence with Q180S, V184H
# [29] = target: T29, PUM1 PUF domain R5-SRI C1007S + Q1011I (Homo sapiens) (UniProt Q14671)
# T29 sequence: T1 sequence with Q180S, L181R, V184I
# [30] = target: T30, PUM1 PUF domain R5-SRR C1007S + Q1011R (Homo sapiens) (UniProt Q14671)
# T30 sequence: T1 sequence with Q180S, L181R, V184R
# [31] = target: T31, PUM1 PUF domain R5-SRT C1007S + Q1011T (Homo sapiens) (UniProt Q14671)
# T31 sequence: T1 sequence with Q180S, L181R, V184T
# [32] = target: T32, PUM1 PUF domain R5-SRV C1007S + Q1011V (Homo sapiens) (UniProt Q14671)
# T32 sequence: T1 sequence with Q180S, L181R
# [33] = target: T33, PUM1 PUF domain R5-SSR C1007S + R1008S + Q1011R (UniProt Q14671)
# T33 sequence: T1 sequence with Q180S, L181S, V184R
# [34] = target: T34, PUM1 PUF domain R5-SVG C1007S + R1008V + Q1011G (Homo sapiens) (UniProt Q14671)
# T34 sequence: T1 sequence with Q180S, L181V, V184G
# [35] = target: T35, PUM1 PUF domain R5-SVS C1007S + R1008V + Q1011S (UniProt Q14671)
# T35 sequence: T1 sequence with Q180S, L181V, V184S
# [36] = target: T36, PUM1 PUF domain R5-SVT C1007S + R1008V + Q1011T (UniProt Q14671)
# T36 sequence: T1 sequence with Q180S, L181V, V184T
# [37] = target: T37, PUM1 PUF domain R5-SVV C1007S + R1008V + Q1011V (UniProt Q14671)
# T37 sequence: T1 sequence with Q180S, L181V
# [38] = target: T38, PUM1 PUF domain R5-TEE C1007T + R1008E + Q1011E (UniProt Q14671)
# T38 sequence: T1 sequence with Q180T, L181E, V184E
# [39] = target: T39, PUM1 PUF domain R5-TGR C1007T + R1008G + Q1011R (Homo sapiens) (UniProt Q14671)
# T39 sequence: T1 sequence with Q180T, L181G, V184R
# [40] = target: T40, PUM1 PUF domain R5-TPR C1007T + R1008P + Q1011R (Homo sapiens) (UniProt Q14671)
# T40 sequence: T1 sequence with Q180T, L181P, V184R
# [41] = target: T41, PUM1 PUF domain R5-TSR C1007T + R1008S + Q1011R (Homo sapiens) (UniProt Q14671)
# T41 sequence: T1 sequence with Q180T, L181S, V184R
# [42] = target: T42, PUM1 PUF domain R5-TVD C1007T + R1008V + Q1011D (UniProt Q14671)
# T42 sequence: T1 sequence with Q180T, L181V, V184D
# [43] = target: T43, PUM1 PUF domain R5-VRV C1007V + Q1011V (UniProt Q14671)
# T43 sequence: T1 sequence with Q180V, L181R
# [44] = target: T44, PUM1 PUF domain R5-VYF C1007V + R1008Y + Q1011F (UniProt Q14671)
# T44 sequence: T1 sequence with Q180V, L181Y, V184F
# [45] = target: T45, PUM1 PUF domain R5-VYY C1007V + R1008Y + Q1011Y (UniProt Q14671)
# T45 sequence: T1 sequence with Q180V, L181Y, V184Y
sequence,measurement,setting,value
GGCUAGAACUAGUGGAUCCCCCGGCGCCCGGCGGCUCGAGCCCGGGUAAGUGUUAAUAGUCUGCAUGCCGCCGGGCGCCAUGCCUGCAGGUCGACUCUAGAAAACAUG,binding signal (log2 enrichment (interaction score)),[1],-2.86
same,binding signal (log2 enrichment (interaction score)),[2],-1.75
same,binding signal (log2 enrichment (interaction score)),[3],-0.5
same,binding signal (log2 enrichment (interaction score)),[4],-0.49
same,binding signal (log2 enrichment (interaction score)),[5],-0.59
same,binding signal (log2 enrichment (interaction score)),[6],0.02
same,binding signal (log2 enrichment (interaction score)),[7],-0.24
same,binding signal (log2 enrichment (interaction score)),[8],-0.02
same,binding signal (log2 enrichment (interaction score)),[9],-1.39
same,binding signal (log2 enrichment (interaction score)),[10],-0.67
same,binding signal (log2 enrichment (interaction score)),[11],-0.41
same,binding signal (log2 enrichment (interaction score)),[12],0.66
same,binding signal (log2 enrichment (interaction score)),[13],-1.25
same,binding signal (log2 enrichment (interaction score)),[14],-2.45
same,binding signal (log2 enrichment (interaction score)),[15],-0.75
same,binding signal (log2 enrichment (interaction score)),[16],-6.34
same,binding signal (log2 enrichment (interaction score)),[17],-6.92
same,binding signal (log2 enrichment (interaction score)),[18],-1.12
same,binding signal (log2 enrichment (interaction score)),[19],-1.13
same,binding signal (log2 enrichment (interaction score)),[20],-3.5
same,binding signal (log2 enrichment (interaction score)),[21],-3
same,binding signal (log2 enrichment (interaction score)),[22],-3.47
same,binding signal (log2 enrichment (interaction score)),[23],-2.42
same,binding signal (log2 enrichment (interaction score)),[24],-1.13
same,binding signal (log2 enrichment (interaction score)),[25],-2.36
same,binding signal (log2 enrichment (interaction score)),[26],-0.02
same,binding signal (log2 enrichment (interaction score)),[27],-0.94
same,binding signal (log2 enrichment (interaction score)),[28],-4.18
same,binding signal (log2 enrichment (interaction score)),[29],0.46
same,binding signal (log2 enrichment (interaction score)),[30],0.01
same,binding signal (log2 enrichment (interaction score)),[31],-0.1
same,binding signal (log2 enrichment (interaction score)),[32],-0.67
same,binding signal (log2 enrichment (interaction score)),[33],-5.37
same,binding signal (log2 enrichment (interaction score)),[34],-2.45
same,binding signal (log2 enrichment (interaction score)),[35],-3.31
same,binding signal (log2 enrichment (interaction score)),[36],-2.59
same,binding signal (log2 enrichment (interaction score)),[37],-3.53
same,binding signal (log2 enrichment (interaction score)),[38],-7.42
same,binding signal (log2 enrichment (interaction score)),[39],-1.72
same,binding signal (log2 enrichment (interaction score)),[40],-0.55
same,binding signal (log2 enrichment (interaction score)),[41],-0.58
same,binding signal (log2 enrichment (interaction score)),[42],-5.06
same,binding signal (log2 enrichment (interaction score)),[43],-3.52
same,binding signal (log2 enrichment (interaction score)),[44],-2.37
same,binding signal (log2 enrichment (interaction score)),[45],< -7.13

# Pulled one by one from the entries so far:
sequence,measurement,setting,value
GGCUAGAACUAGUGGAUCCCCCGGCGCCCGGCGGCUCGAGCCCGGGUAAGUGUUAAUAGUCUGCAUGCCGCCGGGCGCCAUGCCUGCAGGUCGACUCUAGAAAACAUG,binding signal (log2 enrichment (interaction score)),[25],-2.36
same,binding signal (log2 enrichment (interaction score)),[45],< -7.13
same,binding signal (log2 enrichment (interaction score)),[16],-6.34
same,binding signal (log2 enrichment (interaction score)),[5],-0.59
